Source: article PMC10539569
Results are given in words; binding and its absence hold for the method and conditions named. In cells and extracts the contact can be indirect. Some binding calls cover weakened binding; strength is not graded here.

By UniProt entry, the sequences of proteins in these tests, tags left out.
UniProt P20700: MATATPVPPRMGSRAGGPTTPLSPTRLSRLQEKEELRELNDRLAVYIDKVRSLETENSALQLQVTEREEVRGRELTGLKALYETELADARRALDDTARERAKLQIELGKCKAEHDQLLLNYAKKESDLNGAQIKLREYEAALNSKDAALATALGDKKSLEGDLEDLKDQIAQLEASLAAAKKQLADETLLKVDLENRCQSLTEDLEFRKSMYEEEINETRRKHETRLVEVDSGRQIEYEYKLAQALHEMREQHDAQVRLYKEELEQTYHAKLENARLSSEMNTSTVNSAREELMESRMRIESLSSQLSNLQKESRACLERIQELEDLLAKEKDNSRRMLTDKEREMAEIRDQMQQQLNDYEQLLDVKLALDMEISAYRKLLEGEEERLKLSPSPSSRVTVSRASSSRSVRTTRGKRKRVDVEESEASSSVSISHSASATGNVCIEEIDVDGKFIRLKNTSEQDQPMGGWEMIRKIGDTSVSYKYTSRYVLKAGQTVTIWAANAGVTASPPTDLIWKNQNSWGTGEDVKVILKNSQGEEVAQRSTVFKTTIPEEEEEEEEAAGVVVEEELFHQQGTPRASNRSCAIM
UniProt Q9P2P5: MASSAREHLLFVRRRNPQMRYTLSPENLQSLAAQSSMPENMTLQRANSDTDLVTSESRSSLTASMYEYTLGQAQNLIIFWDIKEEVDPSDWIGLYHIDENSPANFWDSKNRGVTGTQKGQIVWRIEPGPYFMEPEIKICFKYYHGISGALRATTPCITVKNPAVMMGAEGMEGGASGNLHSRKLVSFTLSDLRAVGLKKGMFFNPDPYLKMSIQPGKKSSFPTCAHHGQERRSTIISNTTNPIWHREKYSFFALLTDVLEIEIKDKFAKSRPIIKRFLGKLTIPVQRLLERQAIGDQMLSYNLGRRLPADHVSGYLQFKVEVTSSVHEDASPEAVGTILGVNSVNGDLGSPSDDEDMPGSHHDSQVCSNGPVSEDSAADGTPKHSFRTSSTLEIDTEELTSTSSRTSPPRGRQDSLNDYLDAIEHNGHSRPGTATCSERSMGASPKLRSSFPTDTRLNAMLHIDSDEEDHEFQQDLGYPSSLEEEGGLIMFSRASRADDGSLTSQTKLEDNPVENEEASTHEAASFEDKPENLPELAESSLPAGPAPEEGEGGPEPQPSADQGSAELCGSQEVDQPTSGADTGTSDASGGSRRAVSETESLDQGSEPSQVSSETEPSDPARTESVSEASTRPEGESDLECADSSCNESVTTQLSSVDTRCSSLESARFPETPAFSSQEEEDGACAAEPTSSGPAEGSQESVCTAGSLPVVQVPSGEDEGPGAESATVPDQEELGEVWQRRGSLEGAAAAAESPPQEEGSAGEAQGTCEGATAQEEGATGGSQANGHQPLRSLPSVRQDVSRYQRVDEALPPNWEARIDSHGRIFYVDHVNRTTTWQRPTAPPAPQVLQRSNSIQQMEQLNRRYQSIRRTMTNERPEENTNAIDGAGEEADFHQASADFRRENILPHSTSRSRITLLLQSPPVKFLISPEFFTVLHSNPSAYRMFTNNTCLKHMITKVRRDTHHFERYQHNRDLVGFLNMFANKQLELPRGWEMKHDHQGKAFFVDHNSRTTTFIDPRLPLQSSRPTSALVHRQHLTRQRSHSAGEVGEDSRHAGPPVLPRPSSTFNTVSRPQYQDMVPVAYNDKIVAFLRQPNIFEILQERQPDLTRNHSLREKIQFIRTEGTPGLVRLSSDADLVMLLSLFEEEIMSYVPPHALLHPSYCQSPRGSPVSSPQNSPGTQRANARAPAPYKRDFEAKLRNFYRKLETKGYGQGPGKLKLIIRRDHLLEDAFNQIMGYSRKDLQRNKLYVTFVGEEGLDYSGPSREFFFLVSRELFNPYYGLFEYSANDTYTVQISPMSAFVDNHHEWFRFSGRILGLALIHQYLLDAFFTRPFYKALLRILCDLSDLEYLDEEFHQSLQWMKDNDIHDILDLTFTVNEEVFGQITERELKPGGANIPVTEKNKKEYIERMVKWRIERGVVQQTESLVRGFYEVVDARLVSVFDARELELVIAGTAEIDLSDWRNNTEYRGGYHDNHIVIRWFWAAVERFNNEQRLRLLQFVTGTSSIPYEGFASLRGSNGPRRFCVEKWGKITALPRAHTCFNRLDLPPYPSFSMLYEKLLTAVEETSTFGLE

Molecular target: lamin B1 (human (endogenous in human CRC cell lines)) (UniProt P20700)
Experiment: co-IP; whole-cell extracts of CRC cells preincubated with protein A and G beads, then IgG or lamin B1 antibody overnight at 4 C; beads washed three times with Tris-HCl buffered saline; SDS-PAGE

## HECW2 (HECT, C2 and WW domain containing E3 ubiquitin protein ligase 2) (from UniProt Q9P2P5 1-1572) (enzyme)
  binding: binds
